Source: publication PMC1266395
These are yes or no findings as the source states them, for the method shown. In cells and extracts the contact can be indirect. Some results given as binding are weak or reduced against the parent protein; the word gives no strength.

The chains behind the UniProt entries cited, without tags or fusion partners.
UniProt P05556: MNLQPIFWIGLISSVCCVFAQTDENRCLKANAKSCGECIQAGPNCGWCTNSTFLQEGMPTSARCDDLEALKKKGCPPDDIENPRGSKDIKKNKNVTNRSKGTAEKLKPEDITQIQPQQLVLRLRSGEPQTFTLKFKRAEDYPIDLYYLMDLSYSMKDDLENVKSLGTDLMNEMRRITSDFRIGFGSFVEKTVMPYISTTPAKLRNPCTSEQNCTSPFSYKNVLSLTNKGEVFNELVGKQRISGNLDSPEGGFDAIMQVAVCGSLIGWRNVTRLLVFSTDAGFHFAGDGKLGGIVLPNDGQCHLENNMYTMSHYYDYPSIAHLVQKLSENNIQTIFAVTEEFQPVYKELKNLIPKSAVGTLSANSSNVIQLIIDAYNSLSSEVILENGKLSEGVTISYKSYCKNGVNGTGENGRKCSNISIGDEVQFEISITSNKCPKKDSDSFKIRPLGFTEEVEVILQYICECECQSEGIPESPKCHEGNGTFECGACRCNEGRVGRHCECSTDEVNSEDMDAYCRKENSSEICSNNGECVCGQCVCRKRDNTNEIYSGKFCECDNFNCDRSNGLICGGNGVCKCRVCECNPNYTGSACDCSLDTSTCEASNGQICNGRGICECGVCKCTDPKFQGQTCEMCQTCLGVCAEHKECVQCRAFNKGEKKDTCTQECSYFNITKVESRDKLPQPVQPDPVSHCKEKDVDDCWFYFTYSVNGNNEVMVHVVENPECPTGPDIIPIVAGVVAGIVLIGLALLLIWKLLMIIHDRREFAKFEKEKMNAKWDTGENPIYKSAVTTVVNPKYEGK
UniProt Q05397: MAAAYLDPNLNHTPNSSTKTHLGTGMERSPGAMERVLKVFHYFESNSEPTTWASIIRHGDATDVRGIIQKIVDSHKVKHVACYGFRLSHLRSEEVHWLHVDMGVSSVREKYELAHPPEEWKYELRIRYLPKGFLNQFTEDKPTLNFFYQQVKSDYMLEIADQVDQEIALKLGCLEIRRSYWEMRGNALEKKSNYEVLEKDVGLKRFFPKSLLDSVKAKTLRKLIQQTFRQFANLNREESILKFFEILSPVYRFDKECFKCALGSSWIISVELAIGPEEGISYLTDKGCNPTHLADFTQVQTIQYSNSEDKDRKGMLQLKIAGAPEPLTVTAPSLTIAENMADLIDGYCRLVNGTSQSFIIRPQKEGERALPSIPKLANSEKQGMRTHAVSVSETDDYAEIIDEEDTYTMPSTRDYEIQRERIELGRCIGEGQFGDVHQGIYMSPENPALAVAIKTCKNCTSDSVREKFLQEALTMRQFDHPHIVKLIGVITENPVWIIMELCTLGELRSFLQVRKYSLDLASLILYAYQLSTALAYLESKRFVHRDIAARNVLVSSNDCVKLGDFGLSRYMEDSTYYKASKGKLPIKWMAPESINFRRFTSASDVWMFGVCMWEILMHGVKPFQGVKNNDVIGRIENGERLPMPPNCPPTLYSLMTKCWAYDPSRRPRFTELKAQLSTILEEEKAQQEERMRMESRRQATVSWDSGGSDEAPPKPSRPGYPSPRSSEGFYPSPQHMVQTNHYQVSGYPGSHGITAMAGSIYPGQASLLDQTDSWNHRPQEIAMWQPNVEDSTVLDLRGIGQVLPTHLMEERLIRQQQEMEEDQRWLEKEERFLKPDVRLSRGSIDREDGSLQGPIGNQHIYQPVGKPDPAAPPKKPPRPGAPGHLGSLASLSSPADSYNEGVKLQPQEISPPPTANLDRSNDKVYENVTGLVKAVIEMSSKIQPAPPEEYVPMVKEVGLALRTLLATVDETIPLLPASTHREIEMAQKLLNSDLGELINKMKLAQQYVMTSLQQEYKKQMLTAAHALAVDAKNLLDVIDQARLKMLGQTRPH

Biological target: β1 integrin subunit (human (endogenous in AsPC-1, BxPC-3, Capan-2)) (UniProt P05556)
Assay: co-IP; β1 integrin immunoprecipitated with anti-β1 (P5D2) from total lysates (750 μg protein) of AsPC-1, BxPC-3 and Capan-2 cells plated on Coll IV or 3 % BSA, with or without 10 ng/ml IL-1α, 0.5 μg/ml anti-β1 integrin antibody or FAK siRNA; 4°C overnight; lysis buffer 50 mM Tris-HCl pH 7.5, 150 mM NaCl, 1 % Triton X-100, 0.1 % SDS, 0.1 % Nonidet P-40; blot with anti-FAK

“focal adhesion kinase (from UniProt Q05397 1-1052)” was tested, and the binding was “binds”.
